The test addresses ZO-1 (dog (endogenous in MDCK)) (UniProt O97758). The test is described as follows: co-IP; data not shown; MDCK cells during junction formation (calcium switch) compared with stable monolayers; which protein was precipitated is not told.

The chains behind the UniProt entries cited, without tags or fusion partners.
UniProt O97758: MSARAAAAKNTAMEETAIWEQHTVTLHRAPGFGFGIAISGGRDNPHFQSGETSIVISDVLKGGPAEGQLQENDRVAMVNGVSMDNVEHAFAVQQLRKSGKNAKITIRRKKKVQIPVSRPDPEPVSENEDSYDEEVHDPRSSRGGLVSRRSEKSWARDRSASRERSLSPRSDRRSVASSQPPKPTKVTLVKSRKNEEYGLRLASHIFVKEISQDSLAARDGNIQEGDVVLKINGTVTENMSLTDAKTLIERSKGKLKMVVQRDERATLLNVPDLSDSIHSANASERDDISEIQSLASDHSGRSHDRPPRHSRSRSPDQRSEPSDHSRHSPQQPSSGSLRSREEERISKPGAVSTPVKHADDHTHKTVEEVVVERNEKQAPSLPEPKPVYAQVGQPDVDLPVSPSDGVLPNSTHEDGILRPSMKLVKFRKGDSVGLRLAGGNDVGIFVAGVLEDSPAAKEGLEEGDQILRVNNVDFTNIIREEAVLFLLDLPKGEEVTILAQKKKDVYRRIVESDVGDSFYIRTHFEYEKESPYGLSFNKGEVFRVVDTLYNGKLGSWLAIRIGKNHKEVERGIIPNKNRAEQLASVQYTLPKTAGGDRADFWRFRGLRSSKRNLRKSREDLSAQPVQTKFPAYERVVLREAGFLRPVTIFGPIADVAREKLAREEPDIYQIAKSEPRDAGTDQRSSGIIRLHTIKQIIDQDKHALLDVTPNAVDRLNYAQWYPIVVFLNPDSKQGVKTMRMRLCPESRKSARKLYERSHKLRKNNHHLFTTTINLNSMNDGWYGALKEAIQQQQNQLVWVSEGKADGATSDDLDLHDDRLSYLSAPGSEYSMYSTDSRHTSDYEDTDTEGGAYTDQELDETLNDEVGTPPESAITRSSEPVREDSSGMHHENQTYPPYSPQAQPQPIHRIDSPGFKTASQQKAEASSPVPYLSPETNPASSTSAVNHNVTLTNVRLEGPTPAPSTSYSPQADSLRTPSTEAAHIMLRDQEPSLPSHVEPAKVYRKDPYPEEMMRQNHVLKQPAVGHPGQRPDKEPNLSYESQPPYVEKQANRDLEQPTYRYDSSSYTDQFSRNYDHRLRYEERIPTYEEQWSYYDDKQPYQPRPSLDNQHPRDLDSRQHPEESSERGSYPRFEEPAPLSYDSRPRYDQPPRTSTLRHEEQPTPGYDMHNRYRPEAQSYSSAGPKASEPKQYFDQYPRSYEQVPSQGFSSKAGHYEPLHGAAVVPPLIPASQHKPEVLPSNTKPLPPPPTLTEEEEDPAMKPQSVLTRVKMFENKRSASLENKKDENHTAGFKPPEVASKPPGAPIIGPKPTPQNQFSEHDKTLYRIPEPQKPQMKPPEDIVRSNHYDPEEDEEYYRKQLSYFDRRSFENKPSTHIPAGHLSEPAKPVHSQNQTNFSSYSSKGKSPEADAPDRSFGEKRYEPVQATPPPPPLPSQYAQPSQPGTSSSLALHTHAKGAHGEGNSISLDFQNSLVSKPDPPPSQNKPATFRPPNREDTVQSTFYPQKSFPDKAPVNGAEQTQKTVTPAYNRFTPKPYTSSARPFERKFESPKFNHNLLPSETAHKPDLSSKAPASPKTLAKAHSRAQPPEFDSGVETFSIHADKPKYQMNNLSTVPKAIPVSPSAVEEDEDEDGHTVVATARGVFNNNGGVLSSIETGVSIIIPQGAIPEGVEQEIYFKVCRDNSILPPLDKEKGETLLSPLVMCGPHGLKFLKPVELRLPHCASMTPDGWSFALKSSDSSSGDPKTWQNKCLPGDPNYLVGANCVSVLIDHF

Among the data in paper PMC2211299 are binding values, retold here.

No constants are given. Whether binding was seen depends on the method and setting. Binding seen in cells or lysates may run through a third protein. Some binding calls cover weakened binding; strength is not graded here.

B1: heat shock protein Apg-2 (protein, UniProt Q2TFN9 1-840)
chain: MSVVGIDLGFQSCYVAVARAGGIETIANEYSDRCTPACISFGPKNRSIGAAAKSQVISNAKNTVQGFKRFHGRAFSDPFVEAEKSNLAYDIVQLPTGLTGIKVKYMEEERNFTTEQVTAMLLSKLKETAESVLKKPVVDCVVSVPCFYTDAERRSVMDATQIAGLNCLRLMNETTAVALAYGIYKQDLPALEEKPRNVVFVDMGHSSYQVSVCAFNRGKLKVLATAFDTTLGGRKFDEVLVNHFCEEFGKKYKLDIKSKIRALLRLSQECEKLKKLMSANASDLPLSIECFMNDVDVSGTMNRGKFLEMCDDLLARVEPPLRSVLEQAKLRKEDIYAVEIVGGATRIPAVKEKISKFFGKELSTTLNADEAVTRGCALQCAILSPAFKVREFSITDVVPYSISLRWNSPAEEGSSDCEVFTKNHSAPFSKVLTFYRKEPFTLEAYYSSPQDLPYPDPAIAQFLVQKVTPQSDGSSSKVKVKVRVNVHGIFSVSSASLVEVLKFEENEEPMETDQNAKEEEKMQVDQEEPHAEEQQQQTPAENKAESEEMETSQAASKDKKMDQPPQAKKAKVKTSTVDLPIENQLLWQIDREMLNLYIENEGKMIMQDKLKKERNDAKNAVEEYVYEMRDKLSGEYEKFVSEDDRNSFTLKLEDTENWLYEDGEDQPKQVYVDKLAELKNLGQPIKMRFQESEERPKLFEELGKQIQQYMKVISSFKNKEDQYDHLDAADMLKVEKSTNEAMEWMNNKLNLQNKQSLTVDPVVKAKEIEAKIKELMSVCGPIISKPKPKVEPPKEEQKNAEQNGPVDGQGDSPGPQAAEQGTDTAVPSDSDKKLPEMDID
For the molecule B1, the binding result is listed as “binds”.
